In assay [1] the target is T1, Msh2HA (Msh2 subunit with an HA epitope tag), expressed in S. cerevisiae (S. cerevisiae) (UniProt P25847).
T1 sequence: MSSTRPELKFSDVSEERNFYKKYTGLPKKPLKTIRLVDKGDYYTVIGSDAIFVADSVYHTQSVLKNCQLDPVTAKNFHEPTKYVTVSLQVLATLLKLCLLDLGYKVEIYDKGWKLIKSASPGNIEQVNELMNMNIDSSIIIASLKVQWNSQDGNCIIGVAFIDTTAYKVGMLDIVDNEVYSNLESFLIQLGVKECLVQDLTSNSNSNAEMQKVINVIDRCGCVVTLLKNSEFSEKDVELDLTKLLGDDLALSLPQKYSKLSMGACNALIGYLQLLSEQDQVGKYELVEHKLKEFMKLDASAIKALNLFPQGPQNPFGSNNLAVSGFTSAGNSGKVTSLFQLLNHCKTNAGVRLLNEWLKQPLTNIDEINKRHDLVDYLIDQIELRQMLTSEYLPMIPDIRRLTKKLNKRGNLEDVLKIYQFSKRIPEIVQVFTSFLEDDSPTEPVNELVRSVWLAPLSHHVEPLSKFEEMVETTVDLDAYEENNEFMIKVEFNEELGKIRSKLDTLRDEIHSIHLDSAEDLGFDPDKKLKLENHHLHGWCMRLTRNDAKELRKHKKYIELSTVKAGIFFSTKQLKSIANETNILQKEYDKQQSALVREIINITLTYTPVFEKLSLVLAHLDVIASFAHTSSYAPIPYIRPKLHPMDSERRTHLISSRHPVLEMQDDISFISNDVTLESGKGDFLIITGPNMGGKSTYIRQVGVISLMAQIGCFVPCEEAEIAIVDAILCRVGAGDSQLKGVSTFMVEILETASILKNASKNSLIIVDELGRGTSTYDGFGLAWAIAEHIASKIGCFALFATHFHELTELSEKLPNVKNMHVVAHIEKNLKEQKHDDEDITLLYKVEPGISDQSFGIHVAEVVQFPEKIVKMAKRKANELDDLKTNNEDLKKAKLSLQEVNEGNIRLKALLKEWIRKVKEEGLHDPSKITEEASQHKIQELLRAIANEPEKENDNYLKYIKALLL
Nature of the assay: co-purification by chromatography; the two subunits overexpressed in S. cerevisiae and purified together by sequential ion exchange chromatography and ssDNA-affinity chromatography.

Assay [2] concerns the target T2, Msh2HA (Msh2 subunit with an HA epitope tag), expressed in E. coli (S. cerevisiae) (UniProt P25847).
T2 sequence: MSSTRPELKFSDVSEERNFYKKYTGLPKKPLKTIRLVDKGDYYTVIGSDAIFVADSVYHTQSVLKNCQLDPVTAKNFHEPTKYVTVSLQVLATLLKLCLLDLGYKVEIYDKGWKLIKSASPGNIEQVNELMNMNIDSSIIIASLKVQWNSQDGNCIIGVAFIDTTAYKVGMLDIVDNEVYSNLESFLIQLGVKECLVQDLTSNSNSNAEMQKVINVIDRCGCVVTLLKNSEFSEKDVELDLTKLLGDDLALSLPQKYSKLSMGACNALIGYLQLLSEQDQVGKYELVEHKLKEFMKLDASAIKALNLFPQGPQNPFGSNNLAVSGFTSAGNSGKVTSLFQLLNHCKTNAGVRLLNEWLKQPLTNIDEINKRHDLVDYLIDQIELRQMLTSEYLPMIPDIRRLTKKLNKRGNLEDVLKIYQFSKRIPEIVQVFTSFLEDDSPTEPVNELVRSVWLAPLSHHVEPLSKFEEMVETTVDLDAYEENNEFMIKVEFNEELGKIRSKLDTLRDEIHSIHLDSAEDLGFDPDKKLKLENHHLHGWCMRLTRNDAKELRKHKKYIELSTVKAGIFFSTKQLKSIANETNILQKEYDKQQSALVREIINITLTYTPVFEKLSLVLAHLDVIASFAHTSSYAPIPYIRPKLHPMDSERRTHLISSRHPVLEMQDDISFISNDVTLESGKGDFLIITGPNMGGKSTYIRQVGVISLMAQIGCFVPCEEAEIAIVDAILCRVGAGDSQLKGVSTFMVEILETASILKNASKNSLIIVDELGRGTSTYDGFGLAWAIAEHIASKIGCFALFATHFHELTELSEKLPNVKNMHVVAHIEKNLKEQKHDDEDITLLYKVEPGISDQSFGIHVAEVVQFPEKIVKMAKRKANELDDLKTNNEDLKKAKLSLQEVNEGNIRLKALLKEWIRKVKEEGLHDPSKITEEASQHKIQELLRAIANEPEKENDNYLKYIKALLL
Nature of the assay: co-purification by chromatography; the two subunits expressed in E. coli and purified together over QFF, ssDNA cellulose and QFF columns.

These are yes or no findings as the source states them, for the method shown. Some binding calls cover weakened binding; strength is not graded here. Sequences can lack the tags named with a protein.

B1: Msh6, expressed in S. cerevisiae (protein, UniProt Q03834 1-1242)
chain: MAPATPKTSKTAHFENGSTSSQKKMKQSSLLSFFSKQVPSGTPSKKVQKPTPATLENTATDKITKNPQGGKTGKLFVDVDEDNDLTIAEETVSTVRSDIMHSQEPQSDTMLNSNTTEPKSTTTDEDLSSSQSRRNHKRRVNYAESDDDDSDTTFTAKRKKGKVVDSESDEDEYLPDKNDGDEDDDIADDKEDIKGELAEDSGDDDDLISLAETTSKKKFSYNTSHSSSPFTRNISRDNSKKKSRPNQAPSRSYNPSHSQPSATSKSSKFNKQNEERYQWLVDERDAQRRPKSDPEYDPRTLYIPSSAWNKFTPFEKQYWEIKSKMWDCIVFFKKGKFFELYEKDALLANALFDLKIAGGGRANMQLAGIPEMSFEYWAAQFIQMGYKVAKVDQRESMLAKEMREGSKGIVKRELQCILTSGTLTDGDMLHSDLATFCLAIREEPGNFYNETQLDSSTIVQKLNTKIFGAAFIDTATGELQMLEFEDDSECTKLDTLMSQVRPMEVVMERNNLSTLANKIVKFNSAPNAIFNEVKAGEEFYDCDKTYAEIISSEYFSTEEDWPEVLKSYYDTGKKVGFSAFGGLLYYLKWLKLDKNLISMKNIKEYDFVKSQHSMVLDGITLQNLEIFSNSFDGSDKGTLFKLFNRAITPMGKRMMKKWLMHPLLRKNDIESRLDSVDSLLQDITLREQLEITFSKLPDLERMLARIHSRTIKVKDFEKVITAFETIIELQDSLKNNDLKGDVSKYISSFPEGLVEAVKSWTNAFERQKAINENIIVPQRGFDIEFDKSMDRIQELEDELMEILMTYRKQFKCSNIQYKDSGKEIYTIEIPISATKNVPSNWVQMAANKTYKRYYSDEVRALARSMAEAKEIHKTLEEDLKNRLCQKFDAHYNTIWMPTIQAISNIDCLLAITRTSEYLGAPSCRPTIVDEVDSKTNTQLNGFLKFKSLRHPCFNLGATTAKDFIPNDIELGKEQPRLGLLTGANAAGKSTILRMACIAVIMAQMGCYVPCESAVLTPIDRIMTRLGANDNIMQGKSTFFVELAETKKILDMATNRSLLVVDELGRGGSSSDGFAIAESVLHHVATHIQSLGFFATHYGTLASSFKHHPQVRPLKMSILVDEATRNVTFLYKMLEGQSEGSFGMHVASMCGISKEIIDNAQIAADNLEHTSRLVKERDLAANNLNGEVVSVPGGLQSDFVRIAYGDGLKNTKLGSGEGVLNYDWNIKRNVLKSLFSIIDDLQS
As to B1, the binding result in assay [1] was “binds”.

B2: Msh6, expressed in E. coli (protein, UniProt Q03834 1-1242)
chain: MAPATPKTSKTAHFENGSTSSQKKMKQSSLLSFFSKQVPSGTPSKKVQKPTPATLENTATDKITKNPQGGKTGKLFVDVDEDNDLTIAEETVSTVRSDIMHSQEPQSDTMLNSNTTEPKSTTTDEDLSSSQSRRNHKRRVNYAESDDDDSDTTFTAKRKKGKVVDSESDEDEYLPDKNDGDEDDDIADDKEDIKGELAEDSGDDDDLISLAETTSKKKFSYNTSHSSSPFTRNISRDNSKKKSRPNQAPSRSYNPSHSQPSATSKSSKFNKQNEERYQWLVDERDAQRRPKSDPEYDPRTLYIPSSAWNKFTPFEKQYWEIKSKMWDCIVFFKKGKFFELYEKDALLANALFDLKIAGGGRANMQLAGIPEMSFEYWAAQFIQMGYKVAKVDQRESMLAKEMREGSKGIVKRELQCILTSGTLTDGDMLHSDLATFCLAIREEPGNFYNETQLDSSTIVQKLNTKIFGAAFIDTATGELQMLEFEDDSECTKLDTLMSQVRPMEVVMERNNLSTLANKIVKFNSAPNAIFNEVKAGEEFYDCDKTYAEIISSEYFSTEEDWPEVLKSYYDTGKKVGFSAFGGLLYYLKWLKLDKNLISMKNIKEYDFVKSQHSMVLDGITLQNLEIFSNSFDGSDKGTLFKLFNRAITPMGKRMMKKWLMHPLLRKNDIESRLDSVDSLLQDITLREQLEITFSKLPDLERMLARIHSRTIKVKDFEKVITAFETIIELQDSLKNNDLKGDVSKYISSFPEGLVEAVKSWTNAFERQKAINENIIVPQRGFDIEFDKSMDRIQELEDELMEILMTYRKQFKCSNIQYKDSGKEIYTIEIPISATKNVPSNWVQMAANKTYKRYYSDEVRALARSMAEAKEIHKTLEEDLKNRLCQKFDAHYNTIWMPTIQAISNIDCLLAITRTSEYLGAPSCRPTIVDEVDSKTNTQLNGFLKFKSLRHPCFNLGATTAKDFIPNDIELGKEQPRLGLLTGANAAGKSTILRMACIAVIMAQMGCYVPCESAVLTPIDRIMTRLGANDNIMQGKSTFFVELAETKKILDMATNRSLLVVDELGRGGSSSDGFAIAESVLHHVATHIQSLGFFATHYGTLASSFKHHPQVRPLKMSILVDEATRNVTFLYKMLEGQSEGSFGMHVASMCGISKEIIDNAQIAADNLEHTSRLVKERDLAANNLNGEVVSVPGGLQSDFVRIAYGDGLKNTKLGSGEGVLNYDWNIKRNVLKSLFSIIDDLQS
Take B2: the binding entry in assay [2] is “binds”.

These data come from PMC4742970 (Nature Communications, 2016).
